Measured values from PMC2429963.
No constants are given. Whether binding was seen depends on the method and setting. Binding seen in cells or lysates may run through a third protein. Some entries that bind do so weakly or less than the wild type. Where a sequence is shown, tags or fusion partners need not be part of it.

Amino acid sequences for entries named in this document (tags omitted). Residues count along the entry.
UniProt P05067, residues 672-770: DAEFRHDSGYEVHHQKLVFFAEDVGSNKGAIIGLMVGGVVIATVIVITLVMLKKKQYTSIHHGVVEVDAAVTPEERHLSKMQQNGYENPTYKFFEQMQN

Target: T1, GST-Ubqn (Drosophila Ubiquilin) (Drosophila) (UniProt Q9VWD9)
T1 sequence: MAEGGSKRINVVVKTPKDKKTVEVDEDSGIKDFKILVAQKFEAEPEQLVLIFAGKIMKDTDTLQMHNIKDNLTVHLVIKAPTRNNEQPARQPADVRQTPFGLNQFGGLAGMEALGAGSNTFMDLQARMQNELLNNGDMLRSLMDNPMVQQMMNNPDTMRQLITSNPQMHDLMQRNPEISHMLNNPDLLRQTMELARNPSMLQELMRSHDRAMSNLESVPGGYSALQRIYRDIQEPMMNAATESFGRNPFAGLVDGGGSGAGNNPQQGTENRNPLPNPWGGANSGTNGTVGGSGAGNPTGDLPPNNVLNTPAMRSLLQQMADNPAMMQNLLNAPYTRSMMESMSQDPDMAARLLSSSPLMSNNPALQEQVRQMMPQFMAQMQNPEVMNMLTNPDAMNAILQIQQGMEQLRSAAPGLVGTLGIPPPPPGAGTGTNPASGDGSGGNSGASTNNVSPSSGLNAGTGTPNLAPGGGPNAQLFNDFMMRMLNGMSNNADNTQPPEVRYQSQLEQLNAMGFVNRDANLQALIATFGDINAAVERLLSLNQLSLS
Assay: pull-down; 10 ug GST fusion proteins retained on 15 uL glutathione beads, mixed with 400 ug lysate of S2 cells transfected with Myc-tagged C99 in 1 mL; eluted by boiling in Laemmli buffer; Western blot with anti-Myc; only the target purified

binding: binds
Substance: C99-9Myc (C99 fragment of human APP, Myc-tagged) (from UniProt P05067 672-770) (domain or fragment)
